Measured values: US20030175364A1, “Process for binding carotenoids to proteins and the products thereof” (priority 2002, published 2003)
Values joined by “and” are separate entries in the source; they are usually repeats but may differ in a detail not shown here. Identical values can stand only once.

Assays:
[1] = tested on: Soy Isoflavone Protein Product; assay: Binding of five different carotenoids to Soy Isoflavone Protein Product (Example 13); conditions: carbonate/bicarbonate buffer with calcium chloride; 0.4 mg carotenoid in THF per 200 mg protein, overnight
[2] = Binding of lutein to proteins at mg scale (Example 7), supernatant + precipitate; conditions: 1 mg dry cake lutein per 200 mg protein, three days

Compound	Estimated Carotenoid Content [1] [mg carotenoid/1 g protein]	Est. Sup + Est. Ppt., mg Lutein/1 g solids [2] [mg Lutein/1 g solids]	Est. Sup + Est. Ppt., mg Lutein/200 mg solids ([2]; listed as BSA)
CC1=C(/C=C/C(C)=C/C=C/C(C)=C/C=C/C=C(C)/C=C/C=C(C)/C=C/C2=C(C)CCCC2(C)C)C(C)(C)CCC1 [Beta carotene, beta-carotene]	0		
CC1=C[C@H](O)CC(C)(C)[C@H]1/C=C/C(C)=C/C=C/C(C)=C/C=C/C=C(C)/C=C/C=C(C)/C=C/C1=C(C)C[C@@H](O)CC1(C)C [Lutein, lutein]	0.617		
CC(C)=CCC/C(C)=C/C=C/C(C)=C/C=C/C(C)=C/C=C/C=C(C)/C=C/C=C(C)/C=C/C=C(\C)CCC=C(C)C [Lycopene, lycopene]	0.0647		
CC1=C(/C=C/C(C)=C/C=C/C(C)=C/C=C/C=C(C)/C=C/C=C(C)/C=C/C2=C(C)C[C@@H](O)CC2(C)C)C(C)(C)C[C@H](O)C1 [Zeaxanthin, zeaxanthin]	1.200		
Bovine Serum Albumin: bovine albumin		0.1992	0.07519 mg Lutein/200 mg solids and 0.03984 mg Lutein/200 mg solids
